# Primary screen of a compound library

The chains behind the UniProt entries cited, without tags or fusion partners.
UniProt E9BF75, entry or part of it: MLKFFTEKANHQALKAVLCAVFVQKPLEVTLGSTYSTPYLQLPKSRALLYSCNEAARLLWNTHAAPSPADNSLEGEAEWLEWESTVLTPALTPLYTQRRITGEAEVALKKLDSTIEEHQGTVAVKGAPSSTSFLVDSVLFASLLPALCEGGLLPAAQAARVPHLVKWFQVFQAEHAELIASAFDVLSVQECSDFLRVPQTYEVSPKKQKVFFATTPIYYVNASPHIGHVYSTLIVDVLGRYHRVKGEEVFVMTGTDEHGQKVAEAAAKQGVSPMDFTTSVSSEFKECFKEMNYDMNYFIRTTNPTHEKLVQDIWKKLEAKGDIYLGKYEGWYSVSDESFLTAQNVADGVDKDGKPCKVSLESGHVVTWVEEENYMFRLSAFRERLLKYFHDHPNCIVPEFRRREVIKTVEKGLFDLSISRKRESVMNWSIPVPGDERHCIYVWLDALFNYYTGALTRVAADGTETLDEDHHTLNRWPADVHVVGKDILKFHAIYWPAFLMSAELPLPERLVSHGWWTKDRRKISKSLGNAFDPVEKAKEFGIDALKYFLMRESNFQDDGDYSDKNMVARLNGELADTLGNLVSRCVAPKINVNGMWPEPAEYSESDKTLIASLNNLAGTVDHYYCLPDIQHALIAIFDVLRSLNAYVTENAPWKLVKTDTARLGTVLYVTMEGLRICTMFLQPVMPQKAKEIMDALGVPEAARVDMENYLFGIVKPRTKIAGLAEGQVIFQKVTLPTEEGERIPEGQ

Measurements from “University of Dundee, Small-Polar-MMV Screening Library” (2021), ChEMBL document CHEMBL3988442.

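Primary screen of methionyl-tRNA synthetase; the read-out is not stated. Target: Methionyl-tRNA synthetase (putative), Leishmania donovani (UniProt E9BF75). The test concentration is not given. Values are per cent inhibition. Of about 68,000 compounds tested this way, about 24 (0.035%) reached 50% or more in at least one test.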

All values are in %. The controls that fix the scale are not given in the record; negative values are as filed. Compounds were drawn at random from those tested, without regard to their results.

| structure | Inhibition |
|---|---|
| `Cc1nn(-c2ncccn2)c2c1C(c1cnn(C)c1)SCC(=O)N2` (stereo not given) | 15.45 |
| `Cc1ccc(-c2noc(CN3CCC(c4ccn[nH]4)CC3)n2)cc1` | 12.37 |
| `CN(C)C(=O)CN1C[C@H]2CN(Cc3cccc(F)c3)C(=O)[C@H]2C1` | 9.333 |
| `CCC(=O)N1CCC(c2nc(N3CCOCC3)ncc2S(C)(=O)=O)CC1` | 17.92 |
| `NC(=O)CN1CC[C@@]2(O)CCCC[C@H]2[C@@H]1c1ccc2c(c1)OCO2` | 6.989 |
| `Cc1nnc(C(C)N2CCCN(Cc3noc(C4CC4)n3)CC2)o1` (stereo not given) | 5.575 |
| `CO[C@H]1C[C@@H](O)C12CCN(C(=O)CCCOc1ccccc1)CC2` | 17.72 |
| `O[C@@H]1CN(c2nc3ccccc3s2)CC[C@H]1c1ccc2c(c1)OCO2` | 19.63 |
| `O=C(NCC1CCCCC1)N1C[C@H]2C[C@H](C(=O)N3CCOCC3)[C@@H](C1)O2` | 5.602 |
| `Cn1nc(C(=O)N2CCCC2)c2c1CN(CC1CCOCC1)C2` | 10.14 |
| `Cc1ocnc1C(=O)N1CCN(CCOc2ccccc2)CC1` | 20.63 |
| `O=C(CNC(=O)c1cc(Cl)ccn1)Nc1nccs1` | 15.57 |
| `CCc1ccccc1NC(=O)C1CN(C(C)=O)C1` | -16.67 |
| `COCCCN(CCOC)C(=O)Nc1ccc(Br)cc1` | 14.08 |
| `CSc1cccc(CN2CCn3nc(CNC(C)=O)cc3C2)c1` | 14.5 |
| `COc1ccccc1CN(Cc1cccnc1)Cc1c[nH]c(C)n1` | 6.4 |
| `Cc1cnccc1Cn1ccnc1C1CCOC1` (stereo not given) | 5.128 |
| `Cn1nccc1C(=O)N1CCCC1c1[nH]ncc1C(N)=O` (stereo not given) | 15.43 |
| `Cc1nn(C)cc1CN(C)C(=O)c1cccnc1` | 9.181 |
| `CCOc1ccc(CCC(=O)N2CC[C@H]3C(=O)NCCO[C@H]3C2)cc1` | 6.266 |
| `Cn1cc(-c2cnc(-c3ccnn3C)nc2)cc1C(=O)NC1CC1` | 6.011 |
| `CC(C)(C)OC(=O)N[C@@H]1C[C@@H](O)CN(C(=O)c2cccc(F)c2)C[C@H]1O` | 16.49 |
| `O=C(Cn1ccc(-c2ccccc2)n1)N1CCN(C(=O)C2CC2)CC1` | 16.1 |
| `CCCc1cc(C(=O)NCCCn2nnc3ccccc32)no1` | 14.58 |
| `Cc1ccc(N2CC[C@@H]3[C@@H]2CCN3C(=O)Cc2ccccc2)nn1` | 9.87 |
| `CC(O)(CCc1ccccc1)CNC(=O)c1cccs1` (stereo not given) | 10.79 |
| `Cc1nn(C)cc1NC(=O)CC1CCN(C(=O)Cc2ccccc2)CC1` | 6.329 |
| `Cc1cnc(N2CCC3(CCCN(c4ncc(F)cn4)C3)C2)nc1` (stereo not given) | -3.067 |
| `CCn1cc(CN(C)Cc2cnn(-c3ccc(F)cc3)c2)cn1` | 7.046 |
| `O=C(c1ccon1)N1CCc2ncnc(NCc3ccccn3)c2CC1` | 4.181 |
| `O=S1(=O)NCC2(CCN(c3ncc(F)cn3)CC2)COc2ccccc21` | 11.96 |
| `O=C(CNC(=O)N1CCc2c([nH]c3ccc(Cl)cc23)C1)NCCCO` | 17.27 |
| `Cc1cc2[nH]c(=O)oc2cc1S(=O)(=O)N1CCC(N2CCCC2=O)CC1` | -3.47 |
| `CC(C)c1nnc2n1CCN(C(=O)CN1Cc3ccccc3C1=O)C2` | 14.29 |
| `CN1CCN(Cc2ccc(-c3ccc(-c4ccn[nH]4)cc3)nc2)CC1` | 10.09 |
| `COCCn1cnc2ccc(NC(=O)CCCn3cccn3)cc2c1=O` | 5.691 |
| `CCN(CC)Cc1ccccc1NC(=O)N(C)Cc1ccccc1O` | 13.04 |
| `O=C(c1cccc(S(=O)(=O)NCCCn2cccn2)c1)N1CCOCC1` | 8.696 |
| `Cc1cnccc1CN1C[C@@H](O)[C@H](Oc2ccccc2)C1` | 7.192 |
| `Cn1nc(CNC(=O)c2nc3ccccc3s2)c2c1CCOC2` | 14.71 |
| `Cc1ncc2c(n1)CN(Cc1nc(C)c(C)o1)CC2` | 20.36 |
| `COCc1nc(C2CC2)nn1-c1ccccc1Cl` | 17.33 |
| `CC(C)c1noc(C(C)N2CCN(CCCN3CCCC3=O)CC2)n1` (stereo not given) | 26.67 |
| `CC(O)Cc1cn(CC2CCN(c3nccc4occc34)CC2)nn1` (stereo not given) | 2.466 |
| `O[C@H]1CCN(CCCOc2ccccc2F)C[C@@]12CCCO2` | 12.81 |
| `COc1ccc(OCC2CCCN(c3nc(CO)cs3)C2)cc1` (stereo not given) | 20.92 |
| `OCCN1CCC(CNCCOCC(F)(F)F)CC1` | 5.645 |
| `Cn1cc(C2CC(=O)NC23CCN(Cc2ccncc2)CC3)cn1` (stereo not given) | 3.014 |
| `CS(=O)(=O)Cc1nc(C2CC2)nn1-c1ccccn1` | 0.5013 |
| `COc1ncc(C(=O)N2CCCC3(C=Cc4ccccc4O3)CC2)cn1` (stereo not given) | 3.855 |
| `Cc1cc(C)n(C2CN(CC(=O)N3CCOCC3)C2)n1` | 21.53 |
| `CNC(=O)CN1CCOCC12CCN(C(=O)c1ccccc1)CC2` | 1.333 |
| `CC(C)CN1CCC2(CCN(C(=O)c3ccc(F)cc3)CC2)C1=O` | 16.5 |
| `CC1CCCN(Cc2cccc(C(=O)Nc3nccs3)c2)C1` (stereo not given) | 12.89 |
| `CS(=O)(=O)N[C@@H]1COC[C@@H]2CN(Cc3ccco3)C[C@@H]21` | 6.301 |
| `Cc1cc(C(=O)NCCn2nc3ccccn3c2=O)[nH]n1` | 7.362 |
| `c1cncc(-c2nccc(CN3CCCC3)n2)c1` | 12.67 |
| `CCn1cnnc1CNC(=O)N(C)C(C)c1cccs1` (stereo not given) | 9.639 |
| `Cc1cnn(CC(=O)N2CCC3(CCC(=O)N(C4CCCC4)C3)CC2)c1` | 13.87 |
| `O=C(NCCCF)Nc1ccc2nc(N3CCOCC3)oc2c1` | 8.681 |
| `CC(C)(O)CSCCNC(=O)c1ccc(F)cc1Cl` | 13.17 |
| `CC(C)n1cc(S(=O)(=O)N2CCCCCC2)cn1` | 6.281 |
| `CNc1nc(N2CCN(C)C(CCO)C2)nc2c1CCC2` (stereo not given) | 12.53 |

Some entries from above, unchanged:

{"structure": "CN1CCN(Cc2ccc(-c3ccc(-c4ccn[nH]4)cc3)nc2)CC1", "Inhibition": 10.09}
{"structure": "Cc1ccc(N2CC[C@@H]3[C@@H]2CCN3C(=O)Cc2ccccc2)nn1", "Inhibition": 9.87}
{"structure": "CO[C@H]1C[C@@H](O)C12CCN(C(=O)CCCOc1ccccc1)CC2", "Inhibition": 17.72}
{"structure": "CC(C)c1nnc2n1CCN(C(=O)CN1Cc3ccccc3C1=O)C2", "Inhibition": 14.29}
{"structure": "COc1ccccc1CN(Cc1cccnc1)Cc1c[nH]c(C)n1", "Inhibition": 6.4}
{"structure": "CC(C)n1cc(S(=O)(=O)N2CCCCCC2)cn1", "Inhibition": 6.281}